Measurements reported in patent publication US20230043198A1, “MICROBIOTA METABOLITES THAT SHAPE HOST PHYSIOLOGY” (Yale University, priority 2018, published 2023).

Experiment: Phenethylamine in tissues of colonized mice by ESI-QQQ-MS/MS
Assay type: in vivo, C57Bl/6 mice

NNCCc1ccccc1 [phenelzine]
phenethylamine in the colon, serum and brains (M. morganii monocolonized mice treated with phenelzine): elevated levels | colonic phenethylamine (germ-free mice and mice colonized with B. theta, treated with MAOI): undetectable
